# Drug screen on melanoma cell lines: cell count

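Human melanoma cells were exposed to two drugs together for 72 h in 1,536-well plates and read by automated microscopy after fixing and staining. The read-out is cell count (nuclei) in % of the DMSO control; lower values mean stronger growth inhibition or killing. Concentrations were fixed for each drug; these are the lower of two levels, a fifth of the higher. The file gives one value for each pair and line, without errors, so small differences may be noise.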 An unselected part of the screen is shown. An entry leaves out what has no value listed here.

Every entry is a combination with Src-I1 at 2 µM: COc1cc2ncnc(Nc3ccc(Oc4ccccc4)cc3)c2cc1OC

With C=CCNC1=C2C[C@@H](C)C[C@H](OC)[C@H](O)[C@@H](C)/C=C(\C)[C@H](OC(N)=O)[C@@H](OC)/C=C\C=C(/C)C(=O)NC(=CC1=O)C2=O at 0.002 µM the screen read A101D: 92.1; IPC-298: 95.5; G-361: 93.7; LB2518-MEL: 123; A2058: 101; MEL-HO: 105; COLO 829: 108; LOX IMVI: 98.2; COLO 800: 79.0; COLO 792: 94.7; IST-MEL1: 103; C32: 70.9. C[C@@H](Oc1cc(-c2cnn(C3CCNCC3)c2)cnc1N)c1c(Cl)ccc(F)c1Cl at 0.2 µM gave A101D: 103; IPC-298: 87.0; G-361: 90.0; LB2518-MEL: 121; A2058: 87.0; MEL-HO: 100; COLO 829: 114; 501mel: 113; LOX IMVI: 140; COLO 800: 116; COLO 792: 88.8; IST-MEL1: 99.3; C32: 84.6. With CO[C@@H]1[C@H](N(C)C(=O)c2ccccc2)C[C@H]2O[C@]1(C)n1c3ccccc3c3c4c(c5c6ccccc6n2c5c31)C(=O)NC4 at 0.08 µM the screen read A101D: 97.0; IPC-298: 82.7; G-361: 80.9; LB2518-MEL: 119; A2058: 82.4; MEL-HO: 106; COLO 829: 94.8; 501mel: 102; LOX IMVI: 99.6; COLO 800: 93.4; COLO 792: 88.3; IST-MEL1: 91.9; C32: 95.4; A375: 116. Results for C=CCn1c(=O)c2cnc(Nc3ccc(N4CCN(C)CC4)cc3)nc2n1-c1cccc(C(C)(C)O)n1 at 0.02 µM are A101D: 77.0; IPC-298: 90.7; G-361: 105; LB2518-MEL: 111; A2058: 93.4; MEL-HO: 106; COLO 829: 77.7; 501mel: 103; LOX IMVI: 96.5; COLO 800: 113; COLO 792: 83.3; IST-MEL1: 98.7; C32: 98.0; A375: 94.6. With CCc1ccc(CCOc2ccc(CC3SC(=O)NC3=O)cc2)nc1 (stereo not shown) at 2 µM the screen read A101D: 91.0; IPC-298: 94.6; G-361: 108; LB2518-MEL: 137; A2058: 103; MEL-HO: 122; COLO 829: 113; 501mel: 101; LOX IMVI: 144; COLO 800: 126; COLO 792: 88.3; IST-MEL1: 99.5; C32: 109; A375: 116. Results for Cn1cnc2c(F)c(Nc3ccc(Br)cc3Cl)c(C(=O)NOCCO)cc21 at 0.015 µM are A101D: 82.8; IPC-298: 69.6; G-361: 95.8; LB2518-MEL: 62.3; A2058: 105; MEL-HO: 96.5; COLO 829: 108; LOX IMVI: 93.7; COLO 800: 105; COLO 792: 72.3; IST-MEL1: 84.5; C32: 102.

COCC[n+]1c2c(n(Cc3cnccn3)c1C)C(=O)c1ccccc1C2=O at 0.0004 µM gave A101D: 114; IPC-298: 87.6; G-361: 101; LB2518-MEL: 101; A2058: 59.0; MEL-HO: 106; COLO 829: 117; 501mel: 96.8; LOX IMVI: 220; COLO 800: 88.9; COLO 792: 83.3; IST-MEL1: 81.5; C32: 97.8; A375: 81.0.

Values as published with doi:10.1371/journal.pone.0140310, rounded.